Measurements reported in paper PMC10842940, “Establishment of dsDNA-dsDNA interactions by the condensin complex” (Molecular cell, 2023).
These are yes or no findings as the source states them, for the method shown. Some binding calls cover weakened binding; strength is not graded here.

B1: Cut14^Smc2 (fission yeast condensin SMC subunit) (protein, UniProt P41003 1-1172)
chain: MKIEELIIDGFKSYAVRTVISNWDDQFNAITGLNGSGKSNILDAICFVLGITNMSTVRAQNLQDLIYKRGQAGITRASVTIVFNNRDPASSPIGFENHPQVSVTRQIIMGGTSKYLINGHRALQQNVQNLFQSVQLNINNPNFLIMQGRITKVLNMKATEILSMIEEASGTRMFEERKEKAFRTMQRKEAKVEEINTLLREEIEPRLTKLRTEKKTFLEYQHIYNDLERLSHLCTAYDYYKLSLKVEELTVQASQKHSHIAEMESSLQTSKQEVLILKEKIKKIEDERMRQMSVSSDRTLDSQLQTVNENITRISTSIELKNTALEEEHGDLQQIRGKAKELETLLRGKRKRLDEVLSVYEKRKDEHQSISKDFKSQEELISSLTTGLSTTEGHETGYSRKLHEARDTLNDFKAEKETNRLKLEGLNKQISLTKPKKAEATKRCDQLNREIDILQNHVEKLKMSLKNTNSDITGEDVLQQKLKQLAKDRGNLLNELDALKSKLAYMEFTYTDPTPNFDRSKVKGLVAQLLTLNEENYDKQTALEITAGGRLYNLIVETEKIGAQLLQKGNLKRRVTIIPLNKITSFVASAERVGAAKKISNNKAQLALELIGYDDELLPAMQYVFGSTLVCDTPESAKKVTFHPSVKLKSVTLDGDVYDPSGTLTGGSVNKSAGPLLQIQKLNSLQLKLQVVTSEYEKLETQLKDLKTQNANFHRLEQEIQLKQHELTLLIEQRETDSSFRLLSDYQQYKDDVKDLKQRLPELDRLILQSDQAIKKIERDMQEWKHNKGSKMAELEKEFNQYKHKLDEFTPILEKSENDYNGVKLECEQLEGELQNHQQSLVQGESTTSLIKTEIAELELSLVNEEHNRKKLTELIEIESAKFSGLNKEIDSLSTSMKTFESEINNGELTIQKLNHEFDRLEREKSVAITAINHLEKENDWIDGQKQHFGKQGTIFDFHSQNMRQCREQLHNLKPRFASMRKAINPKVMDMIDGVEKKEAKLRSMIKTIHRDKKKIQDTVKSIDRFKRSALEKTWREVNSSFGEIFDELLPGNSAELQPPENKEFTDGLEIHVKIGSIWKDSLAELSGGQRSLVALALIMSLLKYKPAPMYILDEIDAALDLSHTQNIGRLIKTKFKGSQFIIVSLKEGMFTNANRLFHVRFMDGSSVVQAR
B2: Cut3^Smc4 (fission yeast condensin SMC subunit) (protein, UniProt P41004 1-1324)
chain: MSDKGIFRTSSTPSIVDVTPDRGERPRKLVRSVLESPSQKDVASIVKIEQTPSRPFFNDFLKKRITDSLNERPNLLNKFMSAQDGTPSKSTGFNERSSQLVSEFTTTEDIENCEETTQVLPPRLVVYELRLTNFKSYAGTQIVGPFHPSFSSIVGPNGSGKSNVIDALLFVFGFRASKLRQSKASALIHKSATHPSLDSCDVEITFKEVNSDFTYVDGSELTVRRTAYKNNTSKYFVNGVESSFSAVSNLLKEKGIDLNHKRFLILQGEVESIAQMKPRAISEGDDGLLEYLEDIIGTSKYKPIIEENMQELSNSDDICAEKESRLKLVLSEKAKLEDSKNSVLSFLKDENELFMKQNQLYRTILYETRNKKTLVQNLLNSLEGKLQAHLEKFEQTERDISEKNEEVKSLREKAAKVKNDCTSEKKTRQSYEQQTVKIEEQLKFLLNKEKKLKKSIEALSFEKSEAENSLSSHDIDSQKLNSEIADLSLRLQQEELSLDDIRKSLQGKTEGISNAIEEKQKAMAPALEKINQLTSEKQILQVELDMLLNKENDLINDVESSQSSLDKLRNDAEENRNILSSKLKVLSDLKGEKKDVSKNIERKKETVHNTYRNLMSNRTKLEEMKASLSSSRSRGNVLESLQRLHESDNLNGFFGRLGDLATIDEAYDVAISTACPALNHIVVDNIETGQKCVAFLRSNNLGRASFIILKELAQKNLARIQTPENVPRLFDLLRFNDQKFAPAFYNVLQNTLVAKNLEQANRIAYGKTRWRVVTLSGQLIDKSGTMTGGGTRVKKGGMSSAITSDVSPASVETCDKQVQLEDTRYRQHLSELESLNQRFTEISERIPSAELEISKLQLDVSACDRLVAGEERRILQLKSDLKSIRNNNERKRNLQNKISNMDKEVEAININNEGLVTEIKTLQDKIMEIGGIRYRIQKSKVDDLHEQLKFVKDKLNKMSFKKKKNEQRSQSFQVELSNLTSEYDTTTESIATLKTELQSLNKYVDEHKSRLREFENALWDINSSIDELVKFIEFESKQMNSVKAERIELENQIQEQRTALSEVGNNENKYLKLMSNLKLHNLTEFCDQTTMDSTFPEYSEDELSSVDKSELVSNISVLKKKTEDREVDINVLSEYRRCNKEAEKRDSDYQSELQKRTDLKKVVTDLQSQRLDEFMYGFGIISMKLKEMYQIITMGGNAELELVDSLDPFSEGVLFSVMPPKKSWKNISNLSGGEKTLSSLALVFALHNYKPTPLYVMDEIDAALDFKNVSIVANYIKERTKNAQFIVISLRSNMFELSSRLVGIYKTANMTKSVTINNKEILTD
B3: Cnd3^Ycg1 (fission yeast condensin HEAT-repeat subunit) (natural protein, S. pombe, UniProt Q10429 1-875, looked up)
chain: MSCIQIISSSQTSIAGHRKLCNKLFTLRTQEGFETDILRALNIILTVKKGNSNADRVLRFLVTFVNYLQQKDPEIDIVQPILKHILRGLDAKDKTVRYRCCQIIARVVNCVKEIDDDLYNTLKEKLLSRVLDRESIVRLEAVVALSRLQEDTGDEENDVRNILLFLLQNDPSSEVRRSVLLNIEVSNSTLPFILERARDVDAANRKCVYARVLPKIGDFRYLSIKKRVRILKWGLNDRDESVEKAAADMLAYQWIENADNNLLELLERLDVSNNSDVAVLAIKKFFDVRVDSLSQLEFPEQFWLELTAESSLLARTFNEICIEKNYTDLLDKMPEVVQLTYYIERQYVSLRDKSSYDESCFIIEQLLYIGLSQDMVDEIGRRKLLKSLTNSLSTMALPDSLISLHIELLRKLCSSENDFCSLLVEIITEVFEQGHSQNQTEEQGNSNAPELNKNDYEGEEITVSQKSPSPSLPPNELNEPEPDDMDGYKEAFNELRCLSYVQCLFENITSSLNENLYMVDMLKTLIIPAVRSHDLPIREKGLECLSLVCLLNADLAFENVPLYLHCYEKGSVVLKCTAIRTLTDMLIQHGKAKFTEYEDAISSILFEALGEFENAELQTLGAEAIAKLLVILHYRDELFLKPLIIQYFEPNTVDNHALRQVLGYFFPVYAFGAHENQWRIATIFCDALLSLLEIYRDLDEDDVQLSIGHIAQQMLDWTDNEKLYERKTQTGDDYIALNHNVHLHLANMIFESLPNASEGKERKFMISLLGKLKIPTDLPSSDYQRTKRKLETYESHGFTMDSTSLSILAKFERMLLQNEEARSKFEETEEERLMENAEENEHAGAEAISGEIIPDTVEANMEDEEEVYVKQEEDL
notes: Cnd3 (Ycg1), S. pombe condensin HEAT-repeat subunit; cDNA cloned into an S. cerevisiae expression vector; also called Cnd3^CAP-G; source: S. cerevisiae (w303, pep4 deleted), co-overexpressed with the other four condensin subunits from GAL1-10 promoters; in cell extract, and purified as the complex (IgG-agarose, 3C protease elution, heparin, Superose 6)

Each binder was assayed against T1, Cnd2^Brn1 (fission yeast condensin kleisin subunit) (S. pombe) (UniProt Q9Y7R3) (assay: co-purification (IgG-agarose affinity, heparin, gel filtration); five subunits co-overexpressed in S. cerevisiae; extract bound to rabbit IgG-agarose through Cnd2-2xProtA, washed at 300 mM NaCl, eluted with 3C protease, then heparin column and Superose 6; 4°C).
T1 sequence: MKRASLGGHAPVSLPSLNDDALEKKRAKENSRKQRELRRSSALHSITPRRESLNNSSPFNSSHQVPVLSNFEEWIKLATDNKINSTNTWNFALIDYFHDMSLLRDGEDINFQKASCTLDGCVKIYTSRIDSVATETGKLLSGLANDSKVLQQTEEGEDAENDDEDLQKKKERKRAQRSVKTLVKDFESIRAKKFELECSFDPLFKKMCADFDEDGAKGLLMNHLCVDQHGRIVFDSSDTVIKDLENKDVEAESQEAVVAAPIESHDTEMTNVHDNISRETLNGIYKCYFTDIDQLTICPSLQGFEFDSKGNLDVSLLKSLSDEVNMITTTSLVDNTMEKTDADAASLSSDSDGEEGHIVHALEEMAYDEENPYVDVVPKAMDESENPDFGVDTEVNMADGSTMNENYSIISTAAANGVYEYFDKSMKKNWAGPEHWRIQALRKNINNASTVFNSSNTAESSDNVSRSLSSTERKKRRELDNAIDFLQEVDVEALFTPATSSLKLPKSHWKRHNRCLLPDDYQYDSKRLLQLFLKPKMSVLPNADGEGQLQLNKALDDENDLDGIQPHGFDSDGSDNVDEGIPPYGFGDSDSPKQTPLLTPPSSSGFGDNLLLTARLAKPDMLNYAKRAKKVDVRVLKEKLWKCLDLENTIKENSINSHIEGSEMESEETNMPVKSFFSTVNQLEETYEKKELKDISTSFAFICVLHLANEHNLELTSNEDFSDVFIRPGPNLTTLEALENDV

binding, binds:
B1, B2, B3
